Results deposited as PubChem BioAssay AID504793 (Drosophila RNAi Screening Center, 2011)
In all, the deposit lists about 23,000 reagents; shown is an unselected part of those that have a named target and a result. Over the whole deposit, 62 (0.27%) got an active call. 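Calls come from follow-up tests whose scores are not deposited, so confirmed genes may have low counts here; counts are not normalised per plate.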 Raw values vary from plate to plate and are shown uncorrected. Names joined by + are all predicted targets of the reagent.

Aim: 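Knock-downs allowing continued mitosis even though DNA is damaged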 (primary screen)
Cell system: Drosophila S2R+ cells
Reagents: long dsRNA against Drosophila genes, about 0.25 µg dsRNA per well
Duration: 4 days of dsRNA, then 4 hours of drug before read-out
Challenge: doxorubicin 0.5 µM for 4 hours to cause double-strand breaks, in cells also given a low, harmless dose of dsRNA against nbs to sensitise the assay
Detection: 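Mitotic index as the number of phospho-histone H3-positive cells in each well following doxorubicin, given as raw counts without normalisation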
Reading the numbers: mitotic cells: higher = more cells in mitosis, weaker G2 arrest
Active means: 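a call needs confirmation in secondary tests, with other dsRNAs and a check of mitotic timing without damage, not just a high primary count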
Calls: active = confirmed in follow-up tests; inactive = not confirmed

Nuak [DRSC14414] | mitotic cells, replicate 1 = 4; Call = inactive
Nuak [DRSC14415] | mitotic cells, replicate 1 = 9; Call = inactive
Nuak [DRSC14416] | mitotic cells, replicate 1 = 2; Call = inactive
Tsp66A + CG42661 + CG42660 [DRSC10233] | mitotic cells, replicate 1 = 8; Call = inactive
CG1986 [DRSC18197] | mitotic cells, replicate 1 = 3; Call = inactive
CG1986 [DRSC27916] | mitotic cells, replicate 1 = 1; Call = inactive
Ciao1 [DRSC06170] | mitotic cells, replicate 1 = 7; Call = inactive
AP-1sigma [DRSC15899] | mitotic cells, replicate 1 = 4; Call = inactive
Elp5 [DRSC08547] | mitotic cells, replicate 1 = 4; Call = inactive
CG30268 [DRSC21983] | mitotic cells, replicate 1 = 5; Call = inactive
CG12289 [DRSC09874] | mitotic cells, replicate 1 = 3; Call = inactive
Decay [DRSC16930] | mitotic cells, replicate 1 = 4; Call = inactive
CG14411 [DRSC19597] | mitotic cells, replicate 1 = 15; Call = inactive
CG14411 [DRSC29396] | mitotic cells, replicate 1 = 6; Call = inactive
Exd2 [DRSC16105] | mitotic cells, replicate 1 = 5; Call = inactive
Exd2 [DRSC25938] | mitotic cells, replicate 1 = 2; Call = inactive
cyp33 [DRSC07600] | mitotic cells, replicate 1 = 5; Call = inactive
Spt7 [DRSC19997] | mitotic cells, replicate 1 = 5; Call = inactive
Spt7 [DRSC24902] | mitotic cells, replicate 1 = 3; Call = inactive
hob [DRSC08426] | mitotic cells, replicate 1 = 6; Call = inactive
hob [DRSC24675] | mitotic cells, replicate 1 = 8; Call = inactive
Pkn [DRSC06810] | mitotic cells, replicate 1 = 2; Call = inactive
Pkn [DRSC25936] | mitotic cells, replicate 1 = 7; Call = inactive
RpL23 [DRSC04648] | mitotic cells, replicate 1 = 5; Call = inactive

A run of entries of the results above, as a working copy:
Exd2 [DRSC16105] | mitotic cells, replicate 1 = 5; Call = inactive
Exd2 [DRSC25938] | mitotic cells, replicate 1 = 2; Call = inactive
cyp33 [DRSC07600] | mitotic cells, replicate 1 = 5; Call = inactive
Spt7 [DRSC19997] | mitotic cells, replicate 1 = 5; Call = inactive
Spt7 [DRSC24902] | mitotic cells, replicate 1 = 3; Call = inactive
hob [DRSC08426] | mitotic cells, replicate 1 = 6; Call = inactive
hob [DRSC24675] | mitotic cells, replicate 1 = 8; Call = inactive

Next records follow.
Grik [DRSC15846] | mitotic cells, replicate 1 = 8; Call = inactive
Grik [DRSC15847] | mitotic cells, replicate 1 = 7; Call = inactive
Grik [DRSC26067] | mitotic cells, replicate 1 = 6; Call = inactive
slgA [DRSC20586] | mitotic cells, replicate 1 = 4; Call = inactive
slgA [DRSC27543] | mitotic cells, replicate 1 = 6; Call = inactive
CG8840 [DRSC00713] | mitotic cells, replicate 1 = 4; Call = inactive
Sod2 [DRSC07554] | mitotic cells, replicate 1 = 4; Call = inactive
Sod2 [DRSC27050] | mitotic cells, replicate 1 = 6; Call = inactive
CG2577 [DRSC19863] | mitotic cells, replicate 1 = 7; Call = inactive
CG2577 [DRSC23309] | mitotic cells, replicate 1 = 10; Call = inactive
CG2577 [DRSC26322] | mitotic cells, replicate 1 = 3; Call = inactive
CG13875 [DRSC08345] | mitotic cells, replicate 1 = 5; Call = inactive
Cyp28d1 [DRSC03298] | mitotic cells, replicate 1 = 4; Call = inactive
Cyp28d1 [DRSC21331] | mitotic cells, replicate 1 = 7; Call = inactive
Cyp28d1 [DRSC28292] | mitotic cells, replicate 1 = 3; Call = inactive
Oseg5 [DRSC03209] | mitotic cells, replicate 1 = 6; Call = inactive
CG14556 [DRSC14899] | mitotic cells, replicate 1 = 6; Call = inactive
Gr98b [DRSC21675] | mitotic cells, replicate 1 = 6; Call = inactive
CycB [DRSC04605] | mitotic cells, replicate 1 = 11; Call = inactive
